Measured data: PubChem BioAssay AID1508597 (Cure First, 2020)

Assay: 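Knock-downs altering ovarian cancer cell survival with or without PARP inhibitor rucaparib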 (primary screen)
System: human ovarian carcinoma lines grown from tumours: OCI-P5x (papillary serous) and OCI-C5x (clear cell)
Reagent: siRNA pool against human genes, 1.25 pmol siRNA per well
Duration: 72 h or 96 h, depending on the cell culture
Conditions: rucaparib 20 µM (about IC30) or vehicle, present until read-out
Rucaparib or vehicle: Vehicle
Cell line: OCI-C5x (clear cell)
Detection: 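Luminescent ATP-based viability assay read 72 or 96 h after transfection, depending on culture, given as normalised percent viability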
Scale: viability, normalised: higher = more viable cells remaining
Hit rule: 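Active when normalised viability falls below 80 percent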
Calls: active = viability under 80%; inactive = viability 80% or more
Shown is an unselected part of the about 2,100 reagents, under one of the conditions tested. 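Calls flag viability under 80% in either arm, not effects specific to rucaparib; the reference for percent is not stated.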 Some reagents were tested in more than one well and are listed for each. Reagent sequences are not shown. Not stated in the record: the 100% reference.

DAPK1, technical replicate 1
- viability, normalised (%): 55.7
- outcome: active

DAPK1, technical replicate 2
- viability, normalised (%): 65.1
- outcome: active

DAPK1, technical replicate 3
- viability, normalised (%): 63.2
- outcome: active

SCYL1, technical replicate 1
- viability, normalised (%): 50.5
- outcome: active

SCYL1, technical replicate 1
- viability, normalised (%): 57.7
- outcome: active

SCYL1, technical replicate 2
- viability, normalised (%): 54.3
- outcome: active

SCYL1, technical replicate 2
- viability, normalised (%): 31.9
- outcome: active

SCYL1, technical replicate 3
- viability, normalised (%): 70.6
- outcome: active

SCYL1, technical replicate 3
- viability, normalised (%): 65.9
- outcome: active

RAD54L, technical replicate 1
- viability, normalised (%): 37.9
- outcome: active

RAD54L, technical replicate 1
- viability, normalised (%): 41.4
- outcome: active

RAD54L, technical replicate 2
- viability, normalised (%): 39.9
- outcome: active

RAD54L, technical replicate 2
- viability, normalised (%): 41.6
- outcome: active

RAD54L, technical replicate 3
- viability, normalised (%): 56.4
- outcome: active

RAD54L, technical replicate 3
- viability, normalised (%): 59.2
- outcome: active

An excerpt taken from the entries so far:
SCYL1, technical replicate 2
- viability, normalised (%): 31.9
- outcome: active

SCYL1, technical replicate 3
- viability, normalised (%): 70.6
- outcome: active
